Results on 1 molecule are retold here after article PMC8534003, “The Chemokine-Based Peptide, CXCL9(74-103), Inhibits Angiogenesis by Blocking Heparan Sulfate Proteoglycan-Mediated Signaling of Multiple Endothelial Growth Factors” (Cancers, 2021).

Results are given in words; binding and its absence hold for the method and conditions named.

The target of this test is human recombinant EGF (human). In words: ELISA; ELISA-like direct binding assay: 96-well plates coated with 50 ng/mL growth factor in PBS at 4 °C overnight; blocked with 0.1% casein, 0.05% Tween 20 in PBS; biotinylated CXCL9(74-103) 1-1000 ng/mL, 37 °C, 1 h; detected with streptavidin-HRP; both purified. For orientation: In an ELISA, binding on a coated surface is turned into a signal by an enzyme label.

Turning to KKKQKNGKKHQKKKVLKVRKSQRSRQKKTT (biotin at the NH2-terminus) [biotinylated CXCL9(74-103)], the binding result is on record as “no binding (tested: 1-1000 ng/mL biotinylated CXCL9(74-103))”.
